This experiment has as its target FLAG-PICK1 D3N (UniProt Q9EP80). Nature of the experiment: co-IP; anti-FLAG immunoprecipitation from transfected HEK293 cell extracts in IP buffer (0.5% Triton X-100, 150 mM NaCl, 20 mM HEPES pH 7.4), 4 °C; Western blot.

By UniProt entry, the sequences of proteins in these tests, tags left out. Where a name states a change or a piece, a line headed by the entry shows the natural chain unless it says otherwise.
UniProt Q9EP80: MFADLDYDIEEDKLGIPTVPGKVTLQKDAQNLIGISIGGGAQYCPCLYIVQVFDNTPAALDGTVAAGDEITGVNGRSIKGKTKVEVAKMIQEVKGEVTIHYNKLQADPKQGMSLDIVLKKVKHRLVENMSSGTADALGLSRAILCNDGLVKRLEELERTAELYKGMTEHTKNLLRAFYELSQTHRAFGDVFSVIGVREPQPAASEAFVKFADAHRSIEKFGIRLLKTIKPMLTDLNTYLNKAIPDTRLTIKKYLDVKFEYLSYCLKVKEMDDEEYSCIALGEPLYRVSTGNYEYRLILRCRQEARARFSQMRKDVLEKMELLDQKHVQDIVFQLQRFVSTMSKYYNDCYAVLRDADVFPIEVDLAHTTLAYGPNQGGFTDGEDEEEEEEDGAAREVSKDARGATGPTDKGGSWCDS
UniProt Q9UKV8: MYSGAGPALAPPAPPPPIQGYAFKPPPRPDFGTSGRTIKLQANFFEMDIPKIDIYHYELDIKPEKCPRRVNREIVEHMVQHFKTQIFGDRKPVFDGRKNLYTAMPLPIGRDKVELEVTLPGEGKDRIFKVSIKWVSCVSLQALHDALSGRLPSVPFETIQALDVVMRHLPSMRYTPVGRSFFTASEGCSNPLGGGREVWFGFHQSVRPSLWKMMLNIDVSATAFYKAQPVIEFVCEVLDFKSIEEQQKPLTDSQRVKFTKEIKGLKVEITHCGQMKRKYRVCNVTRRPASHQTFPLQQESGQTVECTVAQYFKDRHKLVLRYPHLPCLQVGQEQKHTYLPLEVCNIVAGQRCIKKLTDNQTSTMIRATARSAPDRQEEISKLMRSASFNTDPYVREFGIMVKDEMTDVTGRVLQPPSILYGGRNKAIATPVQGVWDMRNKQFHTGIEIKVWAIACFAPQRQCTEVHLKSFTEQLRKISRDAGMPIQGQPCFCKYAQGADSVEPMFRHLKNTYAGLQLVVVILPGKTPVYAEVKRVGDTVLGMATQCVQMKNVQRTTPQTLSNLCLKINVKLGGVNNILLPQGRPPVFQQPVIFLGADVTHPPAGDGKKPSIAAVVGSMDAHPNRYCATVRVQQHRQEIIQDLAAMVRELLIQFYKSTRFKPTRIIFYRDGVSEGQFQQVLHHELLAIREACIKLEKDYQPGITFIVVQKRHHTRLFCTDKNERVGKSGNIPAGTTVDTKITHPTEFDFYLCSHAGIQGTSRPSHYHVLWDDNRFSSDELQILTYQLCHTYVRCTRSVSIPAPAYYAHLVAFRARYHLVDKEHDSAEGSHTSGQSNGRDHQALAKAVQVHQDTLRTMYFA

These are yes or no findings as the source states them, for the method shown. Binding seen in cells or lysates may run through a third protein. Binding can be weak; no strength is given.

As to Myc-Ago2 (from UniProt Q9UKV8 1-859), the binding result was “binds”.
